PubChem BioAssay AID1224830 – NIAID | 2016

- Aim: 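Host factors that control LPS-induced TNF expression in human macrophages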 (primary screen)
- System: human THP-1 monocytic leukaemia cells, TNF dual-luciferase reporter clone, PMA-differentiated to macrophage-like cells
- Reagents: siRNA pool against human genes, 50 nM
- Timing: LPS for 4 h, given about 3 days after siRNA transfection
- Challenge: bacterial LPS (TLR4 ligand), 10 ng/ml
- Detection: 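TNF firefly reporter luminescence divided by renilla, normalised to the plate median, then turned into a robust z-score for each replicate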
- Scale: TNF reporter robust z-score: higher = stronger TNF reporter response to LPS
- Active means: 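Each well counts as active if its z-score is over 2.8 or under -1.5; controls are left without a call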
The whole screen tested about 18,000 reagents; below is a random part of them. About 2,900 of all reagents (16%) were called active. 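Calls are made per well; low scores hint the gene aids the LPS response, high scores that it dampens it.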 Repeated entries: four replicate wells of each siRNA pool.

no.	Gene	PubChem SID	TNF reporter robust z-score	Outcome
1	NAA80 (GeneID 24142)	SID315455440	-0.17	inactive
2	NAA80 (GeneID 24142)	SID315455440	-1.14	inactive
3	NAA80 (GeneID 24142)	SID315455440	-1.24	inactive
4	NAA80 (GeneID 24142)	SID315455440	-0.13	inactive
5	RPS4Y1 (GeneID 6192)	SID315451217	-1	inactive
6	RPS4Y1 (GeneID 6192)	SID315451217	0.51	inactive
7	RPS4Y1 (GeneID 6192)	SID315451217	-0.48	inactive
8	RPS4Y1 (GeneID 6192)	SID315451217	0.3	inactive
9	SAMTOR (GeneID 154743)	SID315462594	-1.7	active
10	SAMTOR (GeneID 154743)	SID315462594	-1.38	inactive
11	SAMTOR (GeneID 154743)	SID315462594	-1.56	active
12	SAMTOR (GeneID 154743)	SID315462594	-1.59	active
13	B4GALT5 (GeneID 9334)	SID315453207	-0.08	inactive
14	B4GALT5 (GeneID 9334)	SID315453207	-0.35	inactive
15	B4GALT5 (GeneID 9334)	SID315453207	-0.74	inactive
16	B4GALT5 (GeneID 9334)	SID315453207	0.2	inactive
17	ZBBX (GeneID 79740)	SID315459427	0.14	inactive
18	ZBBX (GeneID 79740)	SID315459427	0.35	inactive
19	ZBBX (GeneID 79740)	SID315459427	-1.26	inactive
20	ZBBX (GeneID 79740)	SID315459427	0.45	inactive
21	PDE12 (GeneID 201626)	SID315463084	0.33	inactive
22	PDE12 (GeneID 201626)	SID315463084	-0.46	inactive
23	PDE12 (GeneID 201626)	SID315463084	0.59	inactive
24	PDE12 (GeneID 201626)	SID315463084	-0.36	inactive
25	QPCTL (GeneID 54814)	SID315457179	-1.22	inactive
26	QPCTL (GeneID 54814)	SID315457179	-1.09	inactive
27	QPCTL (GeneID 54814)	SID315457179	-1.44	inactive
28	QPCTL (GeneID 54814)	SID315457179	-0.56	inactive
29	S100A12 (GeneID 6283)	SID315451279	-0.63	inactive
30	S100A12 (GeneID 6283)	SID315451279	0.31	inactive
31	S100A12 (GeneID 6283)	SID315451279	-0.16	inactive
32	S100A12 (GeneID 6283)	SID315451279	-0.25	inactive
33	FBXL8 (GeneID 55336)	SID315457607	2.43	inactive
34	FBXL8 (GeneID 55336)	SID315457607	1.45	inactive
35	FBXL8 (GeneID 55336)	SID315457607	1.29	inactive
36	FBXL8 (GeneID 55336)	SID315457607	1.07	inactive
37	MALT1 (GeneID 10892)	SID315454431	-0.33	inactive
38	MALT1 (GeneID 10892)	SID315454431	-0.05	inactive
39	MALT1 (GeneID 10892)	SID315454431	0.85	inactive
40	MALT1 (GeneID 10892)	SID315454431	2.33	inactive
41	ARID1A (GeneID 8289)	SID315452456	-0.42	inactive
42	ARID1A (GeneID 8289)	SID315452456	-0.7	inactive
43	ARID1A (GeneID 8289)	SID315452456	-0.81	inactive
44	ARID1A (GeneID 8289)	SID315452456	-0.92	inactive
45	KCNK18 (GeneID 338567)	SID315463986	0.17	inactive
46	KCNK18 (GeneID 338567)	SID315463986	0.35	inactive
47	KCNK18 (GeneID 338567)	SID315463986	0.29	inactive
48	KCNK18 (GeneID 338567)	SID315463986	1.45	inactive
49	SCARA5 (GeneID 286133)	SID315463898	-1.46	inactive
50	SCARA5 (GeneID 286133)	SID315463898	-0.02	inactive
51	SCARA5 (GeneID 286133)	SID315463898	-0.68	inactive
52	SCARA5 (GeneID 286133)	SID315463898	-0.91	inactive

11 neighbouring records from above, quoted:
no.	Gene	PubChem SID	TNF reporter robust z-score	Outcome
17	ZBBX (GeneID 79740)	SID315459427	0.14	inactive
18	ZBBX (GeneID 79740)	SID315459427	0.35	inactive
19	ZBBX (GeneID 79740)	SID315459427	-1.26	inactive
20	ZBBX (GeneID 79740)	SID315459427	0.45	inactive
21	PDE12 (GeneID 201626)	SID315463084	0.33	inactive
22	PDE12 (GeneID 201626)	SID315463084	-0.46	inactive
23	PDE12 (GeneID 201626)	SID315463084	0.59	inactive
24	PDE12 (GeneID 201626)	SID315463084	-0.36	inactive
25	QPCTL (GeneID 54814)	SID315457179	-1.22	inactive
26	QPCTL (GeneID 54814)	SID315457179	-1.09	inactive
27	QPCTL (GeneID 54814)	SID315457179	-1.44	inactive

The list goes on:
no.	Gene	PubChem SID	TNF reporter robust z-score	Outcome
53	FADS3 (GeneID 3995)	SID315449778	-1.47	inactive
54	FADS3 (GeneID 3995)	SID315449778	-1.22	inactive
55	FADS3 (GeneID 3995)	SID315449778	-1.59	active
56	FADS3 (GeneID 3995)	SID315449778	-1.55	active
57	SRD5A1 (GeneID 6715)	SID315451626	-0.39	inactive
58	SRD5A1 (GeneID 6715)	SID315451626	0.16	inactive
59	SRD5A1 (GeneID 6715)	SID315451626	0.35	inactive
60	SRD5A1 (GeneID 6715)	SID315451626	1.1	inactive
61	SOCS1 (GeneID 8651)	SID315452718	-0.26	inactive
62	SOCS1 (GeneID 8651)	SID315452718	-0.03	inactive
63	SOCS1 (GeneID 8651)	SID315452718	-0.65	inactive
64	SOCS1 (GeneID 8651)	SID315452718	0.37	inactive
65	NKX3-2 (GeneID 579)	SID315447512	-0.9	inactive
66	NKX3-2 (GeneID 579)	SID315447512	-1.29	inactive
67	NKX3-2 (GeneID 579)	SID315447512	-1.2	inactive
68	NKX3-2 (GeneID 579)	SID315447512	-0.98	inactive
69	SLC27A5 (GeneID 10998)	SID315454520	1.02	inactive
70	SLC27A5 (GeneID 10998)	SID315454520	-0.02	inactive
71	SLC27A5 (GeneID 10998)	SID315454520	-0.34	inactive
72	SLC27A5 (GeneID 10998)	SID315454520	0.42	inactive
73	HIVEP2 (GeneID 3097)	SID315449195	-0.14	inactive
74	HIVEP2 (GeneID 3097)	SID315449195	0.23	inactive
75	HIVEP2 (GeneID 3097)	SID315449195	0.35	inactive
76	HIVEP2 (GeneID 3097)	SID315449195	2.14	inactive
77	CLK2 (GeneID 1196)	SID315447968	-1.59	active
78	CLK2 (GeneID 1196)	SID315447968	-0.64	inactive
79	CLK2 (GeneID 1196)	SID315447968	-0.72	inactive
80	CLK2 (GeneID 1196)	SID315447968	-0.47	inactive
81	RTN2 (GeneID 6253)	SID315451259	-0.66	inactive
82	RTN2 (GeneID 6253)	SID315451259	0.12	inactive
83	RTN2 (GeneID 6253)	SID315451259	-0.7	inactive
84	RTN2 (GeneID 6253)	SID315451259	-0.86	inactive
85	VWA1 (GeneID 64856)	SID315459028	-1.24	inactive
86	VWA1 (GeneID 64856)	SID315459028	-0.99	inactive
87	VWA1 (GeneID 64856)	SID315459028	-1.16	inactive
88	VWA1 (GeneID 64856)	SID315459028	-1.1	inactive
89	FZD4 (GeneID 8322)	SID315452476	0.28	inactive
90	FZD4 (GeneID 8322)	SID315452476	-0.46	inactive
91	FZD4 (GeneID 8322)	SID315452476	-0.11	inactive
92	FZD4 (GeneID 8322)	SID315452476	0.3	inactive
93	ATG16L2 (GeneID 89849)	SID315460746	0.59	inactive
94	ATG16L2 (GeneID 89849)	SID315460746	-0.22	inactive
95	ATG16L2 (GeneID 89849)	SID315460746	-0.3	inactive
96	ATG16L2 (GeneID 89849)	SID315460746	0.72	inactive
97	SLC66A3 (GeneID 130814)	SID315461876	-0.52	inactive
98	SLC66A3 (GeneID 130814)	SID315461876	0.32	inactive
99	SLC66A3 (GeneID 130814)	SID315461876	-0.67	inactive
100	SLC66A3 (GeneID 130814)	SID315461876	-0.07	inactive
101	TSG101 (GeneID 7251)	SID315451988	-0.67	inactive
102	TSG101 (GeneID 7251)	SID315451988	-0.56	inactive
103	TSG101 (GeneID 7251)	SID315451988	-1.17	inactive
104	TSG101 (GeneID 7251)	SID315451988	-0.84	inactive
105	H4C5 (GeneID 8367)	SID315452518	-1.01	inactive
106	H4C5 (GeneID 8367)	SID315452518	-0.92	inactive
107	H4C5 (GeneID 8367)	SID315452518	-0.61	inactive
108	H4C5 (GeneID 8367)	SID315452518	-0.64	inactive
109	CMBL (GeneID 134147)	SID315461959	1.03	inactive
110	CMBL (GeneID 134147)	SID315461959	1.18	inactive
111	CMBL (GeneID 134147)	SID315461959	1.86	inactive
112	CMBL (GeneID 134147)	SID315461959	-0.18	inactive
